From PMC10470608, “Bacterial TANGO2 homologs are heme-trafficking proteins that facilitate biosynthesis of cytochromes c” (mBio, 2023)

Amino acid sequences for entries named in this document (tags omitted). A change or cut given only in a name is not applied to a line headed by its entry.
UniProt Q8EKG7: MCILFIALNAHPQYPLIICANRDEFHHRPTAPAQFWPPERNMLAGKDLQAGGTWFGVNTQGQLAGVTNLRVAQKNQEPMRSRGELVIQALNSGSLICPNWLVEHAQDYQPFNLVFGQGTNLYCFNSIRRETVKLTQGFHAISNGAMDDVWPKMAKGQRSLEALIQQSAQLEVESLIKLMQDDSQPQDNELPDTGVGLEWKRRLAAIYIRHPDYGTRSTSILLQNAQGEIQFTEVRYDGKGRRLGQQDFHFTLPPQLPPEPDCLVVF
UniProt Q8EBE6: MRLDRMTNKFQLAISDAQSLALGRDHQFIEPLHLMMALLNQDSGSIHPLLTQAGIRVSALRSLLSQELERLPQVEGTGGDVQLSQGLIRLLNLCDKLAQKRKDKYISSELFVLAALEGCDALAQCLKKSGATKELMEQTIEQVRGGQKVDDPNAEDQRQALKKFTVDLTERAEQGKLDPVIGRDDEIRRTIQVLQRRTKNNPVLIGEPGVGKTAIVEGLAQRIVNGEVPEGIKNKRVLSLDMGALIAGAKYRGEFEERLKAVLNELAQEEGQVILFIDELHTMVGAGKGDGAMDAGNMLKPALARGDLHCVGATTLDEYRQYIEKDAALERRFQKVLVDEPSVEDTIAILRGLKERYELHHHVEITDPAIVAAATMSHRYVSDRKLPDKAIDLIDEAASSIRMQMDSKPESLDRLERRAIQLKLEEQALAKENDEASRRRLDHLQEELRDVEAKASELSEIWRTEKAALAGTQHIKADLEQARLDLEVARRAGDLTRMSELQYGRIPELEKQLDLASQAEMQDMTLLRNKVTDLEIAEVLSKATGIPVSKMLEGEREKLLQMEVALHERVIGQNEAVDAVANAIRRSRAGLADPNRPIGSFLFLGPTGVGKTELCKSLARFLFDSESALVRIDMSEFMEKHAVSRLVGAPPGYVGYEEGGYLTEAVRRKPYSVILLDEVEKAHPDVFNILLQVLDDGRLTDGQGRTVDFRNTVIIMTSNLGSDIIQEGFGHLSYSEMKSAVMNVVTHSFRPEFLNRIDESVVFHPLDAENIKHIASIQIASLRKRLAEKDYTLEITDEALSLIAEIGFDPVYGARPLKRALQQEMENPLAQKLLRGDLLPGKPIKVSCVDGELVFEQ
UniProt Q8EHT7: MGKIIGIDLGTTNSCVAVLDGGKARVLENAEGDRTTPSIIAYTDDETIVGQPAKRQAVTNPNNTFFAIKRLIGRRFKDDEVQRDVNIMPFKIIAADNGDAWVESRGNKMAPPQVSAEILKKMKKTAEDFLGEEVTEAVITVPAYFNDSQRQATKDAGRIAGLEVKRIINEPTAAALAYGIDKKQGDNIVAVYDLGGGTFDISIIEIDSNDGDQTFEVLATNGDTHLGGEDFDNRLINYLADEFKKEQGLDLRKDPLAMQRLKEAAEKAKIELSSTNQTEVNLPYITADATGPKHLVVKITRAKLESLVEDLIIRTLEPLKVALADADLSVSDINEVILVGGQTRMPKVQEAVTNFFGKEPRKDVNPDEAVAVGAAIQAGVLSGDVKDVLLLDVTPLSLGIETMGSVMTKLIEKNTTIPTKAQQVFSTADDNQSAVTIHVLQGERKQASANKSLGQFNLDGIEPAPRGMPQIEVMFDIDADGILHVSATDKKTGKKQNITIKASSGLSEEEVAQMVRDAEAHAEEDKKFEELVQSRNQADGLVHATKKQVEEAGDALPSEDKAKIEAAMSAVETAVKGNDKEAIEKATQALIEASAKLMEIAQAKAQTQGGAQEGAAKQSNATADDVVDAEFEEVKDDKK
UniProt Q8CX48: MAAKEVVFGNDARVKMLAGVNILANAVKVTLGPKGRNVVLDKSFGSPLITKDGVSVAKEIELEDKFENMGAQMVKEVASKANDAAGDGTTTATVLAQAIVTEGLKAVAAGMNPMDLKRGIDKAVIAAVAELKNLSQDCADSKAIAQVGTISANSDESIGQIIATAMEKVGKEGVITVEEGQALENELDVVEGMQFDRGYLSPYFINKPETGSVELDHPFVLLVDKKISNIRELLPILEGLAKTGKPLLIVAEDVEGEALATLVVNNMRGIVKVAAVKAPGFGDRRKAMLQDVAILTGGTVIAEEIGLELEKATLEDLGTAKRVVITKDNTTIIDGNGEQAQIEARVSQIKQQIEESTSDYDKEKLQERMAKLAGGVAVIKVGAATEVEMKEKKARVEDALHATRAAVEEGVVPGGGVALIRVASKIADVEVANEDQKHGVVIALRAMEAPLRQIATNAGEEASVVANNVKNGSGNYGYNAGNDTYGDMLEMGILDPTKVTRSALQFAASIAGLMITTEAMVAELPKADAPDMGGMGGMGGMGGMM

Molecular target: HtpA-BirA* fusion (S. oneidensis) (UniProt Q8EKG7)
Test: proximity labelling; BioID: HtpA-BirA* as bait in S. oneidensis ΔhtpA, 15 µg/mL D-biotin and 0.2 mM IPTG for 16 h; biotinylated proteins enriched on beads and identified by LC-MS/MS

Row | binding | Molecule
1 | binds | ClpB (from UniProt Q8EBE6 1-857)
2 | binds | DnaK (from UniProt Q8EHT7 1-639)
3 | binds | GroEL (from UniProt Q8CX48 1-545)
4 | binds | HtpG (protein, UniProt Q8EFF7 1-637) MSQQETHGFQTEVKQLLHLMIHSLYSNKEIFLRELVSNAADAADKLRYLALTNDALYEGDGELRVRISADKEKGTVTIEDNGVGMTRDGVIEHLGTIAKSGTAEFFKNLSGEASKDSQLIGQFGVGFYSAFIVAKKVTVRTRAAGHKANEAVLWESEGEGSFTVETITKATRGTEITLHLRDDEKEFADDWRLRSIITKYSDHISIPVEMWQEGTPERDGPDGEKIPATEGYWKAMNKATALWMRNKSEITDEEYQEFYKHISHDYTDALLWSHNRVEGKQEYTNLLYIPSKAPWDLWNRDRKHGLKLFVQRVFIMDDAEQFMPSYLRFVQGLIDSNDLPLNVSREILQDNHITKAMRTGITKRVLGMLEKLAKDDAEKYQQFWAEFGQVLKEGPAEDFANRERIAGLLRFASTHTGSAAPTVSLDDYISRMKEGQTKIYYIVADSHEAAANSPHLELLRKKGIEVLLMSERIDEWLINHLTEYKEKQLHSVTRGELELGELEDAAEKEAQEKLAEESAPLIERIKAALGASVADVKVTSRLTDTPACVVTGEGEMSTQMIKLMQAAGQPVPEVKPTFEVNPAHPLVSRLNDLQDEAAFADWSNLLLQQAQLSEKGSLADPSAFIKLMNQMLLANLK
5 | no binding | catalase KatB (enzyme, UniProt Q8EHY4 1-486) MSQQYLTSQSGSPIADDQNSLSAGERGPLLLQDWHLIEKLAHFNRERIPERVVHAKGTGVYGTFTLTKDLSDYTIADHFNGVGKQTETFVRFSTVGGEMGSADAERDPRGFGLRFYTARGNHDIVGNNTPTFFLRDGIKFPDFIHTQKRNPLTNLKDPQAMWDFWSLNPEAMHQVTILMSDRGIPANYRQMHGYGSHTFSFWNAKGERFWVKFHFKSQQGVVNLSNEQADKLKGIDPDSSQRDMVVAITDGNFPRWTVNVQIMPEADANTYHINPFDLTKVWPHGDYPLIEIGVLELNRLPQNYFAEVEQVALAPSNLVPGVGASPDKMLQARLFAYADAQRYRIGANYNQLPVNCPHAAKANHHQRAGAMAGTQCPYHGSQTGGDASANYGPNSTIGALVEPANFAEPPLRLDGETARYSRYNQDDYTQAGNLYRIFSEEEKARLVATISGSLRQASMDVQQRMLAHFQKADADYGQRIKMALGL

These are yes or no findings as the source states them, for the method shown. Binding seen in cells or lysates may run through a third protein. A yes stands for co-enrichment or nearness to the bait. Other partners may have been found. A no says only that the protein was not detected with the bait.
